Test results from patent EP0464022B1, “INSULINOTROPIC HORMONE” (THE GENERAL HOSPITAL CORPORATION, priority 1989, dated 2000).
Part of at least one peptide drawing is inferred or uncertain, most often the ends.

Key:
rat pancreas = test: Pancreatic perfusion assay of insulinotropic activity (isolated perfused rat pancreas, insulin radioimmunoassay); type: in vivo; conditions: for Insulinotropic Activity: 10^-11 M; for Insulin Produced: 0 minutes (before peptide added)
[1] = system: insulinoma cell line RIN 1046-38; test: cAMP formation in insulinoma cell line; type: cell-based, rat; conditions: 10 minutes

Row | Structure (SMILES) | Insulinotropic Activity (rat pancreas; 5 minute perfusion, time +1 minute) | Insulinotropic Activity (rat pancreas; 5 minute perfusion, time +2 minutes) | Insulinotropic Activity (rat pancreas; 5 minute perfusion, time +3 minutes) | Insulinotropic Activity (rat pancreas; 5 minute perfusion, time -1 minute) | Insulinotropic Activity (rat pancreas; five minute perfusion) | potency as secretagogue, 7-37 form compared with 7-36-amide (rat pancreas; perfused rat pancreas) | cAMP formation ([1]; IBMX 100 uM, peptide 10^-7 M) | cAMP formation ([1]; IBMX 100 uM, peptide 10^-9 M) | cAMP formation ([1]; IBMX 100 uM, peptide 10^-11 M) | cAMP formation ([1]; IBMX 500 uM, peptide 10^-7 M) | cAMP formation ([1]; IBMX 500 uM, peptide 10^-9 M) | cAMP formation ([1]; IBMX 500 uM, peptide 10^-11 M) | increase in serum insulin concentrations (rat pancreas; 5 x 10^-7M) [fold] | Insulin Produced (rat pancreas; 5x10^-8M) [picograms/ml] | Insulin Produced (rat pancreas; 5x10^-10M) [picograms/ml]
1 | CC[C@H](C)[C@H](NC(=O)[C@H](Cc1ccccc1)NC(=O)[C@H](CCC(=O)O)NC(=O)[C@H](CCCCN)NC(=O)[C@H](C)NC(=O)[C@H](C)NC(=O)[C@H](CCC(N)=O)NC(=O)CNC(=O)[C@H](CCC(=O)O)NC(=O)[C@H](CC(C)C)NC(=O)[C@H](Cc1ccc(O)cc1)NC(=O)[C@H](CO)NC(=O)[C@H](CO)NC(=O)[C@@H](NC(=O)[C@H](CC(=O)O)NC(=O)[C@H](CO)NC(=O)[C@@H](NC(=O)[C@H](Cc1ccccc1)NC(=O)[C@@H](NC(=O)CNC(=O)[C@H](CCC(=O)O)NC(=O)[C@H](C)NC(=O)[C@@H](N)Cc1c[nH]cn1)[C@@H](C)O)[C@@H](C)O)C(C)C)C(=O)N[C@@H](C)C(=O)N[C@@H](Cc1c[nH]c2ccccc12)C(=O)N[C@@H](CC(C)C)C(=O)N[C@H](C(=O)N[C@@H](CCCCN)C(=O)NCC(=O)N[C@@H](CCCNC(=N)N)C(N)=O)C(C)C [GLP-1 (7-36)-NH2] | 4550 ± 703 | 3330 ± 637 | 2500 ± 564 | 985 ± 275 | substantial insulinotropic activity | equally potent secretagogues | 358±32 fmoles/10ul of cell extract | 225±16 fmoles/10ul of cell extract | 141±5 fmoles/10ul of cell extract | 1676+113 fmoles/10ul of cell extract | 1199+41 fmoles/10ul of cell extract | 446+38 fmoles/10ul of cell extract |  |  | 
2 | CC[C@H](C)[C@H](NC(=O)[C@H](Cc1ccccc1)NC(=O)[C@H](CCC(=O)O)NC(=O)[C@H](CCCCN)NC(=O)[C@H](C)NC(=O)[C@H](C)NC(=O)[C@H](CCC(N)=O)NC(=O)CNC(=O)[C@H](CCC(=O)O)NC(=O)[C@H](CC(C)C)NC(=O)[C@H](Cc1ccc(O)cc1)NC(=O)[C@H](CO)NC(=O)[C@H](CO)NC(=O)[C@@H](NC(=O)[C@H](CC(=O)O)NC(=O)[C@H](CO)NC(=O)[C@@H](NC(=O)[C@H](Cc1ccccc1)NC(=O)[C@@H](NC(=O)CNC(=O)[C@H](CCC(=O)O)NC(=O)[C@H](C)NC(=O)[C@@H](N)Cc1c[nH]cn1)[C@@H](C)O)[C@@H](C)O)C(C)C)C(=O)N[C@@H](C)C(=O)N[C@@H](Cc1c[nH]c2ccccc12)C(=O)N[C@@H](CC(C)C)C(=O)N[C@H](C(=O)N[C@@H](CCCCN)C(=O)NCC(=O)N[C@@H](CCCNC(=N)N)C(=O)NCC(=O)O)C(C)C [GLP-1 (7-37)] |  |  |  |  |  |  |  |  |  |  |  |  | 132 | 925 | 205
